Test [1] addresses T1, FITC-traC synthetic peptide (human).
T1 sequence (peptide, [FITC][Ahx] on the N-terminus; C-terminal [COOH]): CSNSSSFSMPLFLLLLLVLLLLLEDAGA
In words: co-IP.

Protein sequences, listed by entry. Tags and fused reporters are not part of them. Residues count along the entry.
UniProt P35968, residues 20-1356: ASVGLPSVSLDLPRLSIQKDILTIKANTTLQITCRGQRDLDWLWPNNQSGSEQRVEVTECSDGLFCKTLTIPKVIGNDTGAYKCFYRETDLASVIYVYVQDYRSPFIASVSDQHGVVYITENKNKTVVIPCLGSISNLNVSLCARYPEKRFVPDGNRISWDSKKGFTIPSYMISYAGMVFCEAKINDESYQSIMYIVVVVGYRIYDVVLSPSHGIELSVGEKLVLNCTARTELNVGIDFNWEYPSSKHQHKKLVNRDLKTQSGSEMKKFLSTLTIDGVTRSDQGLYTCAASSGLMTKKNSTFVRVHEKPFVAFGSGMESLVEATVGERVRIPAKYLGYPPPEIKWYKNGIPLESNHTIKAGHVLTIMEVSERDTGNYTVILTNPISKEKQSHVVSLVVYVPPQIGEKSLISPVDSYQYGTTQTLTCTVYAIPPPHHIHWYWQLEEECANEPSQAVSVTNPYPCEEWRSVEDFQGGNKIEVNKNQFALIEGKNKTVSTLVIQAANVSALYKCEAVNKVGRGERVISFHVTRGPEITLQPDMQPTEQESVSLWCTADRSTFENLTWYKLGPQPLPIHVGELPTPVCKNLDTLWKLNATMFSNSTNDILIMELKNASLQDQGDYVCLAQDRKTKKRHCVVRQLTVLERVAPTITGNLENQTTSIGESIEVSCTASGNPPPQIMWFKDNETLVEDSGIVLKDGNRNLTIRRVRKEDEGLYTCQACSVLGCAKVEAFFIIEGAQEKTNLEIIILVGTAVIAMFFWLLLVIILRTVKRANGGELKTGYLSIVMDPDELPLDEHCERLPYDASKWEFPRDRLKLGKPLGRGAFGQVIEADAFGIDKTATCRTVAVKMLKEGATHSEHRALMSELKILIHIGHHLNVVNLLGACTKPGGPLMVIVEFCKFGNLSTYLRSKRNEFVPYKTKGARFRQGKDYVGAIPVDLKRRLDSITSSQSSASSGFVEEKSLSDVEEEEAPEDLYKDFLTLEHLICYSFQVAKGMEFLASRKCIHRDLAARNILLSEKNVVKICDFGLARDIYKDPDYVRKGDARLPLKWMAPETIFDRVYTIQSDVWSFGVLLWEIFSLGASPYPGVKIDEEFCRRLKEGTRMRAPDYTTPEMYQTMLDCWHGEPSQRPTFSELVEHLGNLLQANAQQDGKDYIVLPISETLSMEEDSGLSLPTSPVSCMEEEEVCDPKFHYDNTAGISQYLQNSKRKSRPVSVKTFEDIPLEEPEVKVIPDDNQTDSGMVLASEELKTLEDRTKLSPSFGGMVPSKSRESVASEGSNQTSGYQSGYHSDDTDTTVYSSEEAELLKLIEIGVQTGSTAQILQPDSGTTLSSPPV

For test [2], the target named is VEGFR2, endogenous in HUVEC (human (endogenous in HUVEC)) (UniProt P35968). In words: co-IP.

These are yes or no findings as the source states them, for the method shown. Binding seen in cells or lysates may run through a third protein. Some entries that bind do so weakly or less than the wild type.

Take “PDGFRβ (platelet-derived growth factor receptor beta), endogenous in HUVEC (from UniProt P09619 33-1106)”: the binding entry in test [1] is given as “no binding”.

In the case of “VEGFR2, endogenous in HUVEC (from UniProt P35968 20-1356) (receptor)”, in test [1], the binding result is “binds”.

B1: T cell protein tyrosine phosphatase (TCPTP), endogenous in HUVEC (enzyme, UniProt P17706 1-415)
chain: MPTTIEREFEELDTQRRWQPLYLEIRNESHDYPHRVAKFPENRNRNRYRDVSPYDHSRVKLQNAENDYINASLVDIEEAQRSYILTQGPLPNTCCHFWLMVWQQKTKAVVMLNRIVEKESVKCAQYWPTDDQEMLFKETGFSVKLLSEDVKSYYTVHLLQLENINSGETRTISHFHYTTWPDFGVPESPASFLNFLFKVRESGSLNPDHGPAVIHCSAGIGRSGTFSLVDTCLVLMEKGDDINIKQVLLNMRKYRMGLIQTPDQLRFSYMAIIEGAKCIKGDSSIQKRWKELSKEDLSPAFDHSPNKIMTEKYNGNRIGLEEEKLTGDRCTGLSSKMQDTMEENSESALRKRIREDRKATTAQKVQQMKQRLNENERKRKRWLYWQPILTKMGFMSVILVGAFVGWTLFFQQNAL
For the molecule B1, the binding entry in test [2] was “binds”.

(Values after paper doi:10.1101/2024.08.22.609269.)
